Measured values as given in paper PMC8254502.
Results are given in words; binding and its absence hold for the method and conditions named. Some binding calls cover weakened binding; strength is not graded here. Each block holds one substance with its values, some of them ahead of it.

Legend:
Test in all cases: native gel or EMSA; colorless native PAGE (4-16% gradient, 4°C) of soluble extracts (20 mM HEPES pH 7.5, 20 mM KCl, 10% glycerol) of C. reinhardtii strains, immunoblot, in part after a second denaturing dimension; complexes told by co-migration and by their loss in deletion or mutant strains
[1] = target: LSU A143W-R215A-D216A (LSU8mut) (Chlamydomonas reinhardtii) (UniProt P00877)
[2] = target: LSU E109A-R253A (LSU2mut) (Chlamydomonas reinhardtii) (UniProt P00877)
[3] = target: Rubisco large subunit (LSU) (Chlamydomonas reinhardtii (endogenous)) (UniProt P00877)

binding [1]: binds
Substance: LSU A143W-R215A-D216A (LSU8mut) (from UniProt P00877 3-475)

binding [2]: no binding
Substance: LSU E109A-R253A (LSU2mut) (from UniProt P00877 3-475)

binding [3]: binds
Substance: Rubisco large subunit (LSU) (from UniProt P00877 3-475)
